Source: the supplement of paper PMC4683952
Counter-ions that a name gives are not always drawn. The list shows a part of the results. No stated cut-off is given here; in the data, active = 2.5 or more and inactive = the rest. Most values lie within the scatter of the assay; repeated measurements hardly agree.

The compounds below were run on Lgr5 (MarsCy1-Lgr5-EGFP, U2OS) (assay: cell-surface Lgr5 expression (SCi1 fluorescence, background-subtracted) relative to WT control (fold of WT control); higher = more Lgr5 at the plasma membrane). Details: U2OS MarsCy1-Lgr5-EGFP stable; treatment time: overnight; library: Prestwick; 20 µM.

Row | Compound | cell-surface Lgr5 expression
1 | Nc1nc2c(ncn2COC(CO)CO)c(=O)[nH]1 [Ganciclovir] | inactive: 1.74
2 | NCCCCCC(=O)O [Aminocaproic acid] | inactive: 1.63
3 | CN(C)C(=N)NC(=N)N [Metformin hydrochloride] | inactive: 1.62
4 | CC=CC(=O)N(CC)c1ccccc1C [Crotamiton] | inactive: 1.72
5 | CNCCc1ccccn1 [Betahistine mesylate] | active: 3.56
6 | CCN(CC)C(C)CN1c2ccccc2Sc2ccccc21 (centres undefined) [Ethopropazine hydrochloride] | inactive: 2.23
7 | CCCNC(=O)NS(=O)(=O)c1ccc(Cl)cc1 [Chlorpropamide] | inactive: 1.77
8 | N=C(N)NCCCCNC(=N)N [Arcaine sulfate] | inactive: 2.11
9 | Clc1cccc(Cl)c1NC1=NCCN1 [Clonidine hydrochloride] | inactive: 1.09
10 | Cc1cc2nc3c(=O)[nH]c(=O)nc-3n(C[C@H](O)[C@H](O)[C@H](O)CO)c2cc1C [Riboflavine] | inactive: 2.02
11 | O=C1NCC2(CCN(CCc3ccccc3)CC2)O1 [Fenspiride hydrochloride] | inactive: 0.688
12 | C[C@H]1[C@H](C)CC[C@]2(C(=O)O)CC[C@]3(C)C(=CC[C@@H]4[C@@]5(C)CC[C@H](O)C(C)(C)[C@@H]5CC[C@]43C)[C@H]12 [Ursolic acid] | inactive: 0.643
13 | O=C(c1ccc(F)cc1)C1CCN(CCn2c(=O)[nH]c3ccccc3c2=O)CC1 [Ketanserin tartrate hydrate] | inactive: 1.56
14 | CCN(CC)C(=O)c1ccc(O)c(OC)c1 [Ethamivan] | inactive: 1.48
15 | CCC1(c2ccccc2)C(=O)NCNC1=O [Primidone] | inactive: 1.07
16 | CN(C)CCC(c1ccc(Br)cc1)c1ccccn1 (centres undefined) [Brompheniramine maleate] | inactive: 1.32
17 | Nc1ncnc2c1ncn2[C@@H]1O[C@H](CO)[C@@H](O)[C@@H]1O [Vidarabine] | inactive: 1.39
18 | CN1CCN(CC(=O)N2c3ccccc3C(=O)Nc3cccnc32)CC1 [Pirenzepine dihydrochloride] | inactive: 1.06
19 | CN(CCCCCCCCCCN(C)C(=O)Oc1cccc([N+](C)(C)C)c1)C(=O)Oc1cccc([N+](C)(C)C)c1 [Demecarium bromide] | inactive: 2.26
20 | CC(=O)N(CC(O)CO)c1c(I)c(C(=O)NCC(O)CO)c(I)c(C(=O)NCC(O)CO)c1I (centres undefined) [Iohexol] | inactive: 2.05
21 | COC(=O)Nc1nc2cc(Sc3ccccc3)ccc2[nH]1 [Fenbendazole] | inactive: 0.487
22 | NC(Cn1ccc(=O)c(O)c1)C(=O)O (centres undefined) [Mimosine] | inactive: 1.22
23 | C[C@@H]1CCC[C@H](C)N1NC(=O)c1ccc(Cl)c(S(N)(=O)=O)c1 [Clopamide] | inactive: 1.78

Entries listed so far containing an NH in an aromatic ring, in the order listed:
Row | Compound | cell-surface Lgr5 expression
1 | Nc1nc2c(ncn2COC(CO)CO)c(=O)[nH]1 [Ganciclovir] | inactive: 1.74
10 | Cc1cc2nc3c(=O)[nH]c(=O)nc-3n(C[C@H](O)[C@H](O)[C@H](O)CO)c2cc1C [Riboflavine] | inactive: 2.02
13 | O=C(c1ccc(F)cc1)C1CCN(CCn2c(=O)[nH]c3ccccc3c2=O)CC1 [Ketanserin tartrate hydrate] | inactive: 1.56
21 | COC(=O)Nc1nc2cc(Sc3ccccc3)ccc2[nH]1 [Fenbendazole] | inactive: 0.487

More records:

Row | Compound | cell-surface Lgr5 expression
24 | CN[C@H]1CC[C@@H](c2ccc(Cl)c(Cl)c2)c2ccccc21 [Sertraline] | inactive: 1.65
25 | Nc1ccc(S(=O)(=O)Nc2nccs2)cc1 [Sulfathiazole] | inactive: 1.22
26 | CC(CNC1CCCCC1)OC(=O)c1ccccc1 (centres undefined) [Hexylcaine hydrochloride] | inactive: 1.97
27 | CC(C)[N+]1(C)[C@@H]2CC[C@H]1C[C@@H](OC(=O)C(CO)c1ccccc1)C2 (some centres undefined) [Ipratropium bromide] | inactive: 1.66
28 | CCOC1O[C@H]([C@@H](COCc2ccccc2)OCc2ccccc2)[C@H](OCc2ccccc2)[C@H]1O (some centres undefined) [Tribenoside] | inactive: 0.941
29 | CC(=O)Nc1c(I)c(C(=O)N[C@H]2C(O)O[C@H](CO)[C@@H](O)[C@@H]2O)c(I)c(N(C)C(C)=O)c1I (some centres undefined) [Metrizamide] | inactive: 1
30 | CCN(CC)CCNC(=O)c1ccc(N)cc1 [Procainamide hydrochloride] | inactive: 1.78
31 | CC(=O)c1cc2ccccc2oc1=O [3-Acetylcoumarin] | inactive: 2.2
32 | CCCCOc1cc(C(=O)OCCN(CC)CC)ccc1N [Benoxinate hydrochloride] | inactive: 1.3
33 | CC(=O)Nc1nnc(S(N)(=O)=O)s1 [Acetazolamide] | inactive: 1.45
34 | Cc1cc2cc3c(C)cc(=O)oc3c(C)c2o1 [Trioxsalen] | inactive: 1.94
35 | O=C(O)[C@@H]1[C@H]2C[C@H]3c4[nH]c5ccccc5c4CCN3C[C@@H]2CC[C@@H]1O [Yohimbinic acid monohydrate] | inactive: 1.82
36 | COc1cc(CNC(=O)CCCC/C=C/C(C)C)ccc1O [Capsaicin] | inactive: 1.76
37 | CO/N=C(\C(=O)N[C@@H]1C(=O)N2C(C(=O)O)=C(COC(C)=O)CS[C@H]12)c1csc(N)n1 [Cefotaxime sodium salt] | inactive: 1.9
38 | C[C@@H]1C/C=C/C=C/C=C/C=C/[C@H](O[C@@H]2O[C@H](C)[C@@H](O)[C@H](N)[C@@H]2O)C[C@@H]2O[C@](O)(C[C@@H](O)C[C@H]3O[C@@H]3/C=C/C(=O)O1)C[C@H](O)[C@H]2C(=O)O [Natamycin] | inactive: 1.22
39 | CC(C(O)c1ccc(O)cc1)N1CCC(Cc2ccccc2)CC1 (centres undefined) [Ifenprodil tartrate] | inactive: 0.443
40 | CN(C(=O)CN(CCO)CC(=O)N(C)C(C)(C)Cc1ccccc1)C(C)(C)Cc1ccccc1 [Oxethazaine] | inactive: 0.881
41 | Cc1cc(C)nc(NS(=O)(=O)c2ccc(N)cc2)n1 [Sulfamethazine sodium salt] | inactive: 2.25
42 | COc1cc(NS(=O)(=O)c2ccc(N)cc2)ncn1 [Sulfamonomethoxine] | inactive: 2.34
43 | CCCOc1ccccc1-c1nc2[nH]nnc2c(=O)[nH]1 [Zaprinast] | inactive: 1.74
44 | COc1ccc(Cl)cc1C(=O)NCCc1ccc(S(=O)(=O)NC(=O)NC2CCCCC2)cc1 [Glibenclamide] | inactive: 0.547
45 | CC#C[C@]1(O)CC[C@H]2[C@@H]3CCC4=CC(=O)CCC4=C3[C@@H](c3ccc(N(C)C)cc3)C[C@@]21C [Mifepristone] | inactive: 1.51
46 | CCN(CCCCOC(=O)c1ccc(OC)c(OC)c1)C(C)Cc1ccc(OC)cc1 (centres undefined) [Mebeverine hydrochloride] | inactive: 0.822

Row | Compound | cell-surface Lgr5 expression
47 | Cc1cc(C(C)(C)C)cc(C)c1CC1=NCCN1 [Xylometazoline hydrochloride] | inactive: 0.851
48 | CC(C)(CO)[C@@H](O)C(=O)NCCC(=O)O [Pantothenic acid calcium salt monohydrate] | inactive: 1.68
49 | CCN(CC)CCOCCOC(=O)C1(c2ccccc2)CCCC1 [Carbetapentane citrate] | inactive: 0.718
50 | N[C@H]1CONC1=O [(S)-(-)-Cycloserine] | inactive: 0.807
51 | CCCCC1C(=O)N(c2ccccc2)N(c2ccc(O)cc2)C1=O (centres undefined) [Oxyphenbutazone] | inactive: 0.896
52 | COc1cc2nc(N3CCN(C(=O)C4COc5ccccc5O4)CC3)nc(N)c2cc1OC (centres undefined) [Doxazosin mesylate] | inactive: 2.19
53 | O=c1c(O)c(-c2ccc(O)cc2)oc2cc(O)cc(O)c12 [Kaempferol] | inactive: 0.978
54 | C=CCOc1ccccc1OCC(O)CNC(C)C (centres undefined) [Oxprenolol hydrochloride] | inactive: 1.21
55 | NC[C@H]1O[C@H](O[C@H]2[C@H](O)[C@@H](O[C@H]3O[C@H](CO)[C@@H](O)[C@H](N)[C@H]3O)[C@H](N)C[C@@H]2N)[C@H](N)C[C@@H]1O [Tobramycin] | inactive: 2.03
56 | Cc1c(N)c(=O)n(-c2ccccc2)n1C [Ampyrone] | inactive: 1.51
57 | CC(C)NCC(O)COc1cccc2[nH]ccc12 (centres undefined) [Pindolol] | inactive: 1.42
58 | OC(CCN1CCCC1)(c1ccccc1)C1CCCCC1 (centres undefined) [Procyclidine hydrochloride] | inactive: 2.35
59 | CC(CN(C)C)CN1c2ccccc2CCc2ccccc21 (centres undefined) [Trimipramine maleate salt] | inactive: 2.18
60 | COC(=O)[C@H]1[C@H]2C[C@H]3c4[nH]c5ccccc5c4CCN3C[C@H]2CC[C@@H]1O [Rauwolscine hydrochloride] | inactive: 1.81
61 | Nc1ncnc2c1ncn2[C@@H]1O[C@@H]2COP(=O)(O)O[C@H]2[C@H]1O [(-)-Adenosine 3',5'-cyclic monophosphate] | inactive: 1.45
62 | C[C@H]1[C@H]2CC[C@H]3[C@@H]4CC=C5C[C@@H](N(C)C)CC[C@]5(C)[C@H]4CC[C@]23CN1C [Conessine] | inactive: 2.23
63 | CC(C)(C)NC(=O)[C@H]1CC[C@H]2[C@@H]3CC[C@H]4NC(=O)C=C[C@]4(C)[C@H]3CC[C@]12C [Finasteride] | inactive: 2.13
64 | Nc1nc(N)c2nc(-c3ccccc3)c(N)nc2n1 [Triamterene] | inactive: 1.25
65 | C=C1CC[C@H](O)C/C1=C/C=C1\CCC[C@]2(C)[C@@H]([C@H](C)/C=C/[C@H](C)C(C)C)CC[C@@H]12 [Calciferol] | inactive: 0.71
66 | CCCCOc1ccc(C(=O)CCN2CCCCC2)cc1 [Dyclonine hydrochloride] | inactive: 1.25
67 | C=C1C(=O)O[C@H]2[C@H]1CC/C(C)=C/CC[C@@]1(C)O[C@@H]21 [Parthenolide] | inactive: 0.51
68 | CN1[C@@H]2CC[C@H]1C[C@@H](OC(=O)C(O)c1ccccc1)C2 (mixture of isomers) [Homatropine hydrobromide (R,S)] | inactive: 1.59
69 | CC(C)(C)CC(C)(C)c1ccc(OCCOCC[N+](C)(C)Cc2ccccc2)cc1 [Benzethonium chloride] | inactive: 1.59
